The supplement of paper PMC11732987, “Enantioselective OTUD7B fragment discovery through chemoproteomics screening and high-throughput optimisation” (Communications Chemistry, 2025)
The list shows a part of the results. The data scatter; read single values as rough.

Sequences of proteins named here, by UniProt entry; tags and fusion partners are left off. A change or cut given only in a name is not applied to a line headed by its entry. Residues count along the entry.
UniProt Q13586, 31-50: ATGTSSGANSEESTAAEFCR
UniProt Q8N5C6: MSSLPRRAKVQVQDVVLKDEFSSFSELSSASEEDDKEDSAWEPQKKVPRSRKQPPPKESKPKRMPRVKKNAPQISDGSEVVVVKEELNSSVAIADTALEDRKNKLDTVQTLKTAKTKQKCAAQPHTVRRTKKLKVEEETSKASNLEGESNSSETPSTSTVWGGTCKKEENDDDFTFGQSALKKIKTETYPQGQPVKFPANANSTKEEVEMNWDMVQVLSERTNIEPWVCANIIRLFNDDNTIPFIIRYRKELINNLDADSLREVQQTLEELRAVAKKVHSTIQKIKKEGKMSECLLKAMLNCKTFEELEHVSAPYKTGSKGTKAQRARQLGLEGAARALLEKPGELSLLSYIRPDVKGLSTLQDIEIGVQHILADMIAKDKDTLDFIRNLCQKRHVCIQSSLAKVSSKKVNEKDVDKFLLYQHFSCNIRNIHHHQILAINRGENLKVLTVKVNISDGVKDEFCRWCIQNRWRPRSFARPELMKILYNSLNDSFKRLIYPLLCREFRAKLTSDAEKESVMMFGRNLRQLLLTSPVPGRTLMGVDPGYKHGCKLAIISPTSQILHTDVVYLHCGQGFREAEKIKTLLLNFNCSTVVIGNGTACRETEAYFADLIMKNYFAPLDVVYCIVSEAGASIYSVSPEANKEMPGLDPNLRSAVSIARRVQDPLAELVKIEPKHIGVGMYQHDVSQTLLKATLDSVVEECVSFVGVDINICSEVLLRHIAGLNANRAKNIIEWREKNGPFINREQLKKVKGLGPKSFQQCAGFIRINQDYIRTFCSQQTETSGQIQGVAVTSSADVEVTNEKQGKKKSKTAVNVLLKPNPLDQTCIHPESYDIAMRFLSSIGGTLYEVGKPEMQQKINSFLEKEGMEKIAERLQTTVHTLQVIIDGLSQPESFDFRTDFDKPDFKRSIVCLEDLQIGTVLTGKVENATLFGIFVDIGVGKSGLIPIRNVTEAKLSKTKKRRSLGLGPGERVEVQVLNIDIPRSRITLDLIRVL
UniProt Q9Y6Q2: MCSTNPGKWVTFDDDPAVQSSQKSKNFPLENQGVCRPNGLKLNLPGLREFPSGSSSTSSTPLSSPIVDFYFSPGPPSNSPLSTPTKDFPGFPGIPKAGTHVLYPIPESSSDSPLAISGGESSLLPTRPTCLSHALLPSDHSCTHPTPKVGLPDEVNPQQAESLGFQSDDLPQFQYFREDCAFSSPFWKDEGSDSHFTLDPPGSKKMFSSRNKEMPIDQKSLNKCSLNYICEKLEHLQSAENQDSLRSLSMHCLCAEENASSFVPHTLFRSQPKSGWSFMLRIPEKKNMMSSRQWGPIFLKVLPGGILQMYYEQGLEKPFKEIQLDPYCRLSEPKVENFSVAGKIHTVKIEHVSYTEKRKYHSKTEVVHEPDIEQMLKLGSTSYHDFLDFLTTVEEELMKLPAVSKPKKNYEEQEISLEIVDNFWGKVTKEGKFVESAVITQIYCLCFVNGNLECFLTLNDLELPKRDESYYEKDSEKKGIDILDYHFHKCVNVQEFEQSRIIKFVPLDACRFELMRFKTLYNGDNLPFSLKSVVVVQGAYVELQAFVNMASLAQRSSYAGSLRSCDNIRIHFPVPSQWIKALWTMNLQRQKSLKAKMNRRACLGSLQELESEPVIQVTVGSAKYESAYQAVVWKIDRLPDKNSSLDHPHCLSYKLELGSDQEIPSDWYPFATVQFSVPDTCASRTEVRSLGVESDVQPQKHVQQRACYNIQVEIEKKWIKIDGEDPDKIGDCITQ
UniProt Q658P3: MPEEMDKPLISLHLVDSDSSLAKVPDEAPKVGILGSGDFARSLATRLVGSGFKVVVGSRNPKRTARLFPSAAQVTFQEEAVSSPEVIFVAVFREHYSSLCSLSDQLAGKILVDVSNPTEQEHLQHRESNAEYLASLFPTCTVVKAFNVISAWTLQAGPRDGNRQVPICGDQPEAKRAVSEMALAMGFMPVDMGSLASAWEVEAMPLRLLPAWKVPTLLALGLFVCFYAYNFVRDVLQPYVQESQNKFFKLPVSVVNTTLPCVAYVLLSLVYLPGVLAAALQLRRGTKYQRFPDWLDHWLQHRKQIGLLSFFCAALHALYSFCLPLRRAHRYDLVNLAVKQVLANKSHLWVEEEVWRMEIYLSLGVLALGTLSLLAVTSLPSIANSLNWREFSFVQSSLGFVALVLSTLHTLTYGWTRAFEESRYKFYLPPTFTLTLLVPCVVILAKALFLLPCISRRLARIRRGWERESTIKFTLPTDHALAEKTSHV
UniProt Q8TCT8, 492-520: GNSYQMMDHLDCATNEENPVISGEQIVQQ
UniProt P19623, 114-135: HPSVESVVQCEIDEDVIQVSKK
UniProt Q8WXA9, 483-504: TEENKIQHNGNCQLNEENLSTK
UniProt Q8NB90: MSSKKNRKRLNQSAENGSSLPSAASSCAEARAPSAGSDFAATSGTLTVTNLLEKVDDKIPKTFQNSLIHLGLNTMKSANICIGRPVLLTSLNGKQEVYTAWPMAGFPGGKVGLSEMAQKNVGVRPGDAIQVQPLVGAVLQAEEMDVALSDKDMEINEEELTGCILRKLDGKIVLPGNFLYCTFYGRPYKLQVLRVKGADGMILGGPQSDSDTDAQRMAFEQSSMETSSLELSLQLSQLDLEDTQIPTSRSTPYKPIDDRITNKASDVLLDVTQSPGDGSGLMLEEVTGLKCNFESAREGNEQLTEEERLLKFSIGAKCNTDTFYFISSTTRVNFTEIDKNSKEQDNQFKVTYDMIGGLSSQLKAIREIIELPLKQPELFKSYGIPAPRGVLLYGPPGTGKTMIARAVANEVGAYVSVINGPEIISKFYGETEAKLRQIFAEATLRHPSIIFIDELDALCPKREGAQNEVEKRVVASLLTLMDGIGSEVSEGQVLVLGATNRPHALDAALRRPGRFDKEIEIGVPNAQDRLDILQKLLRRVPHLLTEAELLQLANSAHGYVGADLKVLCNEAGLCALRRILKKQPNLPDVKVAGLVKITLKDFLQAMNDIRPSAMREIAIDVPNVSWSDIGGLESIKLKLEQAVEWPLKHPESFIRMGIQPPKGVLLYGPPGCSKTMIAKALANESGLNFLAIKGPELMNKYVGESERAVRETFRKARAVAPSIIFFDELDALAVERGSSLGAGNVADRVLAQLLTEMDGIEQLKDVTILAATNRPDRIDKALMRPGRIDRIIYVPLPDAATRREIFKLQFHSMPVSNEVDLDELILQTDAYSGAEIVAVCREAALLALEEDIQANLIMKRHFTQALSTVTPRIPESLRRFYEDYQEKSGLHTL
UniProt Q9UBS9: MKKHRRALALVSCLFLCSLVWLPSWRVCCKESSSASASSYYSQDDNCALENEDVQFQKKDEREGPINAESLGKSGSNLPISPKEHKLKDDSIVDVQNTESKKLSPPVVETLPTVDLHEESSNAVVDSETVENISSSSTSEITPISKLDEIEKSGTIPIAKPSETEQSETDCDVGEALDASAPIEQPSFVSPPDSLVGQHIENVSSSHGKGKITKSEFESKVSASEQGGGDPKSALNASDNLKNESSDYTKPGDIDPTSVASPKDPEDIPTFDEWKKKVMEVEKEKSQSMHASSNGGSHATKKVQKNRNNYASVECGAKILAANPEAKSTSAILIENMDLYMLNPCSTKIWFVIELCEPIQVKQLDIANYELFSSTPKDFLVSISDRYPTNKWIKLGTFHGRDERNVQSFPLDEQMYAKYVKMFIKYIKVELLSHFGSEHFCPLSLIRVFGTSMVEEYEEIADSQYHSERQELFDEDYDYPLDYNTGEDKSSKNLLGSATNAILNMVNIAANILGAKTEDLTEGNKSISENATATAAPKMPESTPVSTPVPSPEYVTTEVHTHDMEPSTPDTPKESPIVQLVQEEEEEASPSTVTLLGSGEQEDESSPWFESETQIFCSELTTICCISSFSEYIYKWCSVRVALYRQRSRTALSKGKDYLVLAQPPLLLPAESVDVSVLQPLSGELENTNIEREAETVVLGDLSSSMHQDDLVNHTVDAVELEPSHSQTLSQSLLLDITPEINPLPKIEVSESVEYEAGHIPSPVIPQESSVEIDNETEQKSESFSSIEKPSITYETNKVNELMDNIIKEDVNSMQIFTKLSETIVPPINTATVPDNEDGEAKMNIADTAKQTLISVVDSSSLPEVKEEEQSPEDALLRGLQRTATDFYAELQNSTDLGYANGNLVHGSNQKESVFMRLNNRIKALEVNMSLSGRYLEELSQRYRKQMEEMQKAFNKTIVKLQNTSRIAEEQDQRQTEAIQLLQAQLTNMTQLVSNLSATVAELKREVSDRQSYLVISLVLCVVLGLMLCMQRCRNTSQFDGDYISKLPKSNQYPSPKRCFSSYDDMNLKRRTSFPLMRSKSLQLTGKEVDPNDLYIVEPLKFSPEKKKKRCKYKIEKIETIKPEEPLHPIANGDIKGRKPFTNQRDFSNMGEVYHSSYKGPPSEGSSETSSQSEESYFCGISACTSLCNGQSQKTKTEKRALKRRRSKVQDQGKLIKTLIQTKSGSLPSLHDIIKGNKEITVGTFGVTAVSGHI
UniProt Q8NBJ7: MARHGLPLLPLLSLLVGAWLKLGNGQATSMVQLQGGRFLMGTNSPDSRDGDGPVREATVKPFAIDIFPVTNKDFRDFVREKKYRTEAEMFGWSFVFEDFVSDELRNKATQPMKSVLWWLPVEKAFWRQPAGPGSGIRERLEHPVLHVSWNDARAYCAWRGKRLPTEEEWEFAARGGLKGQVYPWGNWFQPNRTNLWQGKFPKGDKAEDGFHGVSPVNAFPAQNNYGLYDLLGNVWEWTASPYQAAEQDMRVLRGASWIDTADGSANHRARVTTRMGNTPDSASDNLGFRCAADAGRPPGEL
UniProt Q15208: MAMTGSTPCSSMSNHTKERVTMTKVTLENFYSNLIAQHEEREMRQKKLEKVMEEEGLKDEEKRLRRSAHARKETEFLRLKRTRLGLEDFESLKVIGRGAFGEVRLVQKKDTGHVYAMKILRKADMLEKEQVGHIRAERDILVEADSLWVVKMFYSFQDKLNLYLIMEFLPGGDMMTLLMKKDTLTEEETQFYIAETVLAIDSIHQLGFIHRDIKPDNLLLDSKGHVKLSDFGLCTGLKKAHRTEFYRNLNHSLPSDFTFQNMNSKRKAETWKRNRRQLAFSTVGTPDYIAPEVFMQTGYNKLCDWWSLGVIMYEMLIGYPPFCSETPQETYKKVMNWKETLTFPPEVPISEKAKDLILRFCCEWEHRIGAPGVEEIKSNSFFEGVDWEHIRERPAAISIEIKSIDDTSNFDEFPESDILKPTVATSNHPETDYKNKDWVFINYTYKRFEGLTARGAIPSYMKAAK
UniProt Q9P2R7: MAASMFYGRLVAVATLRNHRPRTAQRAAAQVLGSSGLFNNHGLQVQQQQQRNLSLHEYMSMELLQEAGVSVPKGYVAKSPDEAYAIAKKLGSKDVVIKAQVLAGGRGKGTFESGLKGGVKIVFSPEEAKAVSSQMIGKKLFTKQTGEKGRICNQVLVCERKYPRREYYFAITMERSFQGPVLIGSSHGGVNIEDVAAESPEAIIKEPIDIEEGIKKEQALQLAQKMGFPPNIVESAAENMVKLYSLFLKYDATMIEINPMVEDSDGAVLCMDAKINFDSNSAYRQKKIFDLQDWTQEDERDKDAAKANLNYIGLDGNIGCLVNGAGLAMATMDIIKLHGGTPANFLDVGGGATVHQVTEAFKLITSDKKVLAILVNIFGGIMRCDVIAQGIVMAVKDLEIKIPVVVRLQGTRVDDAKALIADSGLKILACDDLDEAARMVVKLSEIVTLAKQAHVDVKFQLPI
UniProt O15400: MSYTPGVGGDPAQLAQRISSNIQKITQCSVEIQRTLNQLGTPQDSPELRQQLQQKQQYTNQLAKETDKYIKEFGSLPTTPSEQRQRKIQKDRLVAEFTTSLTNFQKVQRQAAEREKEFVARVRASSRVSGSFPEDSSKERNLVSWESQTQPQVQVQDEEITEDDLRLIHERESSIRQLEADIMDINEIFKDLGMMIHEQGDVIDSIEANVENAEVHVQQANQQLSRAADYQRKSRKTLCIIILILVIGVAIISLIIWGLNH
UniProt O95210: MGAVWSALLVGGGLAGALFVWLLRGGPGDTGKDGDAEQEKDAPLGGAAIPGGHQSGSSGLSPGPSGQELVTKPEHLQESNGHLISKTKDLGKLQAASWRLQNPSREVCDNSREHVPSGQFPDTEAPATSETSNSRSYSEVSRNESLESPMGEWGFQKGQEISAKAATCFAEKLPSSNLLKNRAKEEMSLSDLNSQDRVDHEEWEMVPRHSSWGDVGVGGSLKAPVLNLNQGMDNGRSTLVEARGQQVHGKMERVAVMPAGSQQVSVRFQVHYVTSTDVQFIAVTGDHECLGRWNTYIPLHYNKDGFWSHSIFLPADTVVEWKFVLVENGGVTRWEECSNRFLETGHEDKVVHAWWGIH
UniProt Q9NP77: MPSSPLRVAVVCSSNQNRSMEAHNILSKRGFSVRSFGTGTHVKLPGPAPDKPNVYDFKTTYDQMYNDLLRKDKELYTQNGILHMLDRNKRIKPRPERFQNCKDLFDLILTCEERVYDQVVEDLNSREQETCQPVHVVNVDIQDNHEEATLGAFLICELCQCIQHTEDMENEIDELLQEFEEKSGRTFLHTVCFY

compound: ClCC(=O)N[C@@H]1CCCc2ccccc12; assay: log2 mean competition ratio of IA-DTB cysteine labelling (DMSO/compound) (log2 ratio); higher = stronger cysteine engagement by compound; settings: 50 µM; treatment time: 4 h; cell line lysate: HEK293T
Description: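 IA-DTB competitive cysteine chemoproteomics in HEK293T RIPA lysate. Lysates were treated with compound 29 or 30 at 50 or 200 µM for 4 h, then IA-DTB (500 µM, 1 h), trypsin-digested, NeutrAvidin-enriched and analysed by diaPASEF. Competition ratio = intensity DMSO / intensity compound (n=4 treated, n=64 DMSO); binding: mean log2 CR ≥ 1 and p ≤ 0.05 plus QC filters. Target is the cysteine site.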

Target | log2 mean competition ratio
SPATA2 C41 | 0.0278
STIM1 C49 (UniProt Q13586) | -0.377
SRBD1 C294 (UniProt Q8N5C6) | -0.088
STK24 C394 | -0.00504
STON1 C328 (UniProt Q9Y6Q2) | -0.0145
STK33 C467 (UniProt Q9BYT3) | 0.0898
STIL C752 (UniProt Q15468) | 0.0907
STIM2 C426 (UniProt Q9P246) | 0.125
STEAP3 C168 (UniProt Q658P3) | -0.362
SUPT5H C626 (UniProt O00267) | 0.645
SPPL2A C503 (UniProt Q8TCT8) | 0.124
SPTBN2 C2043 (UniProt O15020) | 0.249
STIP1 C62 | -0.219
SRPRB C179 (UniProt Q9Y5M8) | 0.412
SRM C123 (UniProt P19623) | -0.106
SYNCRIP C289 (UniProt O60506) | -0.156
SREK1 C494 (UniProt Q8WXA9) | -0.416
SPATA5 C459 (UniProt Q8NB90) | 0.389
SUCO C315 (UniProt Q9UBS9) | 0.0961
SUMF2 C290 (UniProt Q8NBJ7) | -0.0567
SUPT6H C1435 (UniProt Q7KZ85) | 0.0168
STK38 C234 (UniProt Q15208) | 0.252
SUCLA2 C384 (UniProt Q9P2R7) | 0.32
STX7 C28 (UniProt O15400) | -0.169
STBD1 C108 (UniProt O95210) | -0.161
SRPRB C100 (UniProt Q9Y5M8) | -0.238
STIP1 C370 | -0.219
SSU72 C12 (UniProt Q9NP77) | -0.408

Six neighbouring records out of the list so far:
Target | log2 mean competition ratio
SREK1 C494 (UniProt Q8WXA9) | -0.416
SPATA5 C459 (UniProt Q8NB90) | 0.389
SUCO C315 (UniProt Q9UBS9) | 0.0961
SUMF2 C290 (UniProt Q8NBJ7) | -0.0567
SUPT6H C1435 (UniProt Q7KZ85) | 0.0168
STK38 C234 (UniProt Q15208) | 0.252
